These are yes or no findings as the source states them, for the method shown. Some results given as binding are weak or reduced against the parent protein; the word gives no strength.
Key:
[1] = target: Pyrobaculum calidifontis crenactin (Pyrobaculum calidifontis) (UniProt A3MWN5); experiment: SEC; crenactin and arcadin-2 co-expressed and purified together; size exclusion profile with Coomassie-stained SDS-PAGE; both purified
[2] = target: Pyrobaculum calidifontis crenactin (Pyrobaculum calidifontis) (UniProt A3MWN5); experiment: SPR; crenactin immobilised by amide coupling on CM5 chip (~700 RU), Biacore T200, PBS-0.005% Tween 20, 20°C; arcadin-2 or arcadin-2ΔC in 1:2 dilution series from 2 µM; kinetic fits, Kd = koff/kon; both purified

Protein sequences, listed by entry. Tags and fused reporters are not part of them.
UniProt A3MWN5: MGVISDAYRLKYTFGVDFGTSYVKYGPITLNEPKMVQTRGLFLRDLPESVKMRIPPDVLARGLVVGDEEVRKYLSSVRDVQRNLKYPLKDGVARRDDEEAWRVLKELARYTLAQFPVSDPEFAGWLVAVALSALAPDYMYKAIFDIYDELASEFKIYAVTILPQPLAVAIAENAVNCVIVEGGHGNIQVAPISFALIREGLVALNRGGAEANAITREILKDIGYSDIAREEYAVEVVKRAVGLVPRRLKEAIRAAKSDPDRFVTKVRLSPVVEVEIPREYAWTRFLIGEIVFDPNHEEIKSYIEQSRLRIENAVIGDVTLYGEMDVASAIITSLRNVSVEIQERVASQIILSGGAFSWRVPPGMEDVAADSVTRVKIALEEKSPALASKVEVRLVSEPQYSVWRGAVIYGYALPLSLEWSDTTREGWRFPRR

Binder | binding [1] | binding [2]
Pyrobaculum calidifontis arcadin-2 (protein, UniProt A3MWN6 1-203) MDFPKVLLIRHFTEVLGMKYAGEGGEVLWFEEGLNRVAVGIYFTDLYEEAELYKRVGALMGLGASKVFLAVLPDALAFVDPRYFKANGVGLVVVDPAKGVDGVEVKIFARARPAAVEPLKIDAVKAALHEYLASELKRVEESLFEKVRRYVDQRVEEVKRALQAVEEAKRAAPPVQRAAAESAQEPRGGIGENEWVKILRSKR | binds | –
arcadin-2 C-terminal truncation mutant (arcadin-2ΔC, residues 1-167) (domain or fragment, UniProt A3MWN6 1-167) MDFPKVLLIRHFTEVLGMKYAGEGGEVLWFEEGLNRVAVGIYFTDLYEEAELYKRVGALMGLGASKVFLAVLPDALAFVDPRYFKANGVGLVVVDPAKGVDGVEVKIFARARPAAVEPLKIDAVKAALHEYLASELKRVEESLFEKVRRYVDQRVEEVKRALQAVEE | – | no binding (tested: 2 µM)
